In the supplement of paper PMC6078165:
± gives the standard deviation of the averaged measurements. The reference is the same well before dosing, and untreated signal decays as well.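 Fibroblast labels denote human fibroblasts, mainly primary ones from uterus (C12385, HUF), lung (H6013), bone (Hs27A), adrenal (HADF) and skin (WS1), plus mammary HMF and breast cancer-associated Hs343T. Cancer cells are basal-like or mesenchymal-like triple-negative breast cancer lines. A hit is a response shift exceeding 3x replicate standard deviation. The tissue of the other fibroblasts is not given here.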

Test system: BT20
Assay: relative JC-1 red fluorescence (viability) vs pre-drug, coculture with fibroblast (fraction); higher = more viable cancer cells
Details: 10 µM
Experimental: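 JC-1 labelled TNBC cells cocultured 1:1 (1,500 cells each) with CellTrace Violet stained primary or stromal fibroblasts in 384-well plates in FluoroBrite medium, treated with one of 42 anticancer drugs at 0.1, 1, 10 or 100 uM. JC-1 red fluorescence (mitochondrial integrity in cancer cells only) was read by plate reader every 8 h for 72 h. Values are normalised to each well's pre-drug value. The stock of one drug was tenfold lower, so its dose labels may be too high.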

O=NN(CCCl)C(=O)NCCCl [Carmustine]
relative JC-1 red fluorescence
Details	8 h	16 h	24 h	32 h	40 h	48 h	56 h	64 h	72 h
coculture fibroblast: C12385	0.906 ± 0.0044	0.816 ± 0.021	0.751 ± 0.019	0.688 ± 0.022	0.633 ± 0.021	0.601 ± 0.017	0.58 ± 0.027	0.56 ± 0.03	0.537 ± 0.031
coculture fibroblast: H6013	0.865 ± 0.14	0.896 ± 0.033	0.8615 ± 0.0037	0.8443 ± 0.0057	0.797 ± 0.0083	0.771 ± 0.013	0.761 ± 0.011	0.737 ± 0.016	0.715 ± 0.014
coculture fibroblast: H6019	0.8793 ± 0.0074	0.7958 ± 0.0032	0.763 ± 0.0082	0.698 ± 0.01	0.658 ± 0.013	0.635 ± 0.019	0.602 ± 0.02	0.576 ± 0.022	0.558 ± 0.025
coculture fibroblast: H6076	0.87 ± 0.18	0.9403 ± 0.0035	0.84589 ± 0.00078	0.834 ± 0.024	0.802 ± 0.036	0.784 ± 0.046	0.772 ± 0.062	0.775 ± 0.071	0.761 ± 0.086
coculture fibroblast: H6231	0.84 ± 0.12	0.957 ± 0.01	0.8295 ± 0.0076	0.772 ± 0.019	0.711 ± 0.011	0.6606 ± 0.0039	0.61 ± 0.0091	0.578 ± 0.007	0.545 ± 0.0056
coculture fibroblast: HADF	0.8949 ± 0.0021	0.935 ± 0.023	0.87 ± 0.04	0.864 ± 0.047	0.819 ± 0.044	0.77 ± 0.044	0.732 ± 0.043	0.7 ± 0.038	0.655 ± 0.038
coculture fibroblast: HCFa	0.969 ± 0.017	0.91 ± 0.044	0.853 ± 0.022	0.808 ± 0.016	0.753 ± 0.011	0.716 ± 0.013	0.679 ± 0.019	0.643 ± 0.017	0.598 ± 0.016
coculture fibroblast: HCPF	0.86 ± 0.056	0.931 ± 0.032	0.82 ± 0.026	0.759 ± 0.021	0.708 ± 0.0076	0.668 ± 0.012	0.621 ± 0.0083	0.5944 ± 0.0027	0.5547 ± 0.0034
coculture fibroblast: HHSteC	0.951 ± 0.021	0.864 ± 0.044	0.841 ± 0.058	0.772 ± 0.061	0.718 ± 0.071	0.679 ± 0.071	0.651 ± 0.075	0.623 ± 0.072	0.589 ± 0.077
coculture fibroblast: HMF	0.928 ± 0.1	0.901 ± 0.031	0.822 ± 0.067	0.781 ± 0.097	0.744 ± 0.11	0.699 ± 0.13	0.67 ± 0.14	0.636 ± 0.14	0.604 ± 0.13
coculture fibroblast: HPFa	0.926 ± 0.027	0.785 ± 0.079	0.844 ± 0.016	0.799 ± 0.085	0.78 ± 0.12	0.759 ± 0.18	0.786 ± 0.27	0.743 ± 0.28	0.674 ± 0.28
coculture fibroblast: HUF	0.953 ± 0.019	0.853 ± 0.0097	0.807 ± 0.018	0.718 ± 0.024	0.651 ± 0.041	0.605 ± 0.047	0.581 ± 0.049	0.561 ± 0.059	0.547 ± 0.07
coculture fibroblast: Hs5	0.83 ± 0.12	0.9128 ± 0.0081	0.8356 ± 0.0032	0.7883 ± 0.0034	0.735 ± 0.017	0.699 ± 0.017	0.658 ± 0.024	0.625 ± 0.022	0.585 ± 0.026
coculture fibroblast: Hs27A	0.7859 ± 0.0066	0.779 ± 0.039	0.9394 ± 0.0068	0.958 ± 0.023	0.91 ± 0.039	0.902 ± 0.043	0.868 ± 0.043	0.839 ± 0.047	0.774 ± 0.043
coculture fibroblast: Hs343T	0.922 ± 0.06	0.876 ± 0.047	0.782 ± 0.038	0.73 ± 0.028	0.679 ± 0.026	0.634 ± 0.027	0.586 ± 0.022	0.564 ± 0.021	0.522 ± 0.015
coculture fibroblast: WS1	0.879 ± 0.037	0.8 ± 0.029	0.695 ± 0.03	0.615 ± 0.012	0.5464 ± 0.0027	0.504 ± 0.0056	0.4635 ± 0.0027	0.4226 ± 0.0033	0.3935 ± 0.00099
